Measured values: US7585977B2, “Selective estrogen receptor modulators containing a phenylsulfonyl group” (Eli Lilly and Company, priority 2005, dated 2009)
Some results were stated once for a whole list of compounds, not compound by compound. At least one compound was matched to its structure with a doubt left.

How the values were obtained:
[1] = test system: Ishikawa human endometrial tumor cells; assay: Ishikawa Cell Proliferation Assay, agonist mode (alkaline phosphatase readout); assay type: cell-based; conditions: compound alone
[2] = test system: immature (3 week old) female rats; assay: 3-Day Rat Uterus Antagonist Assay; assay type: in vivo; conditions: 1.0 mg/kg oral, 3 days, with E2 0.1 mg/kg

Row | SMILES | stimulation in the agonist mode compared with tamoxifen [1] | inhibition of the estrogen-induced response (uterine weight/body weight ratio) [2]
1 | CS(=O)(=O)c1ccc(-c2ccc3cc(O)ccc3c2Oc2ccc(OCCN3CCCCCC3)cc2)cc1.Cl [Example 61, 5-[4-(2-Azepin-1-yl-ethoxy)-phenoxy]-6-(4-methanesulfonyl-phenyl)-naphthalen-2-ol Hydrochloride] | less stimulatory than tamoxifen | inhibit the estrogen-induced response
2 | CNC(=O)Oc1ccc2c(Oc3ccc(OCCN4CCCCC4)cc3)c(-c3ccc(S(C)(=O)=O)cc3)ccc2c1.Cl [Example 12, Methyl-carbamic acid 6-(4-methanesulfonyl-phenyl)-5-[4-(2-piperidin-1-yl-ethoxy)-phenoxy]-naphthalen-2-yl ester Hydrochloride] | less stimulatory than tamoxifen | inhibit the estrogen-induced response
